Measurements published in paper PMC2673211, “Nitric oxide activates ATP-sensitive potassium channels in mammalian sensory neurons: action by direct S-nitrosylation” (Molecular Pain, 2009).

Test system: DRG neurons
Experiment: Intracellular ATP concentration by luciferin-luciferase assay
Type: cell-based, rat
Conditions: 10 minutes after stimulation with SNAP 100 μM

Substance: S-nitroso-N-acetylpenicillamine [SNAP]
- intracellular ATP concentration (SNL rats, n = 6): 0.47 ± 0.19 nmol/g protein
- intracellular ATP concentration (SS rats, n = 5): 0.48 ± 0.14 nmol/g protein
